Test results from article PMC7884335.
Where a protein sequence is shown, tags need not be part of it.

Target: T1, His-RegX3 (Msm) (Mycobacterium smegmatis MC2 155) (UniProt Q9F868)
T1 sequence (looked up): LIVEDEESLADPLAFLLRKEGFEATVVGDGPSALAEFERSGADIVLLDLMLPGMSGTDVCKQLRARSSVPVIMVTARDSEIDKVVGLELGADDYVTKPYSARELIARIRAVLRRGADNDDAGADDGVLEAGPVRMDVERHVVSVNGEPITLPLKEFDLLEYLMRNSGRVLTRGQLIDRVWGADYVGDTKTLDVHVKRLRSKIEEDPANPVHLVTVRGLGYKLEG
Experiment: EMSA
Settings: 0.6 and 1.2 uM protein; EMSA: Tris-HCl pH 8.0, MgCl2, NaCl, EDTA, 1 mM DTT, 0.01% NP-40, 50 ug/ml poly[d(I-C)], glycerol (masses given, total volume not stated), room temperature 20 min; recombinant protein; residues 5-228; protein details: His6 (pET-28a(+), EcoRI/HindIII); label: biotin; probe letters rebuilt from the primers and the genome

## AGCCAGTGGCGATAAGGCTCTTCCCGCAACCTGCGTAGGCGAGGGCCTATGAACGTCTTCGCCACACACACAGCCTAACCGCGATTCTTACACAGGATTTGCAAAGGCTGGCCCACCAGGACACAAAACTACGCATATACAGGCTCTTTACGTGCCATTAGGGGCTGCGTAGCGTGCGGATCATGCGTATTCACGACGTCCGCACCCGGCGCAGCGCCGAGGACTTCCCCCGCTCCGAACATCTCGCGTGGAAGATCGCGCAGGTCGCCGCCGACCCGGTCGCGGTCGACGCCGATGTCGAGGAGATGGTGCTCAACCGGATCATCGACAACGCTGCGGTGTCGGCGGCCTCGGTCACCCGTCGGCTTATCGCCACTGGCT (double strand) [prpR promoter 300 bp (Msm)]
  binding result: binds
